# Assay results reported in PubChem BioAssay (Tox21).
# “And” between values parts separate entries of the source, which are not always exact repeats. Identical values can stand only once. The shares of active, inactive and inconclusive entries below differ from those in the screen. A potency beside an inconclusive call is a rough fit, not a confirmed value. The source made the active and inactive calls. Calls follow the shape of the dose curve; as a rule, active = well fitted cell-killing curve with a large enough effect in the repeat runs; inconclusive = weak or mixed curves, or effect the other way; inactive = flat fitted curve, though single readings scatter.
# Experiment: cAMP Responsive Elements (CRE) small molecule agonists, cell-based qHTS assay: qHTS cell viability counter screen (AID 2060914); also: nearly all actives have a fitted effect of over 50% in size
# Details: CRE-bla HEK293T viability, CellTiter-Glo luminescence, 5 h; series mostly up to 92.4 µM; activity change, negative = cytotoxicity: at the top concentration
# Procedure, shortened: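 HEK 293T CRE-bla; DMEM + 10% dialyzed FBS, 25 mM HEPES; 18 h pre-incubation; compound 3 h, 37 °C/5% CO2; CellTiter-Glo added after reporter read; luminescence after 30 min RT.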
# % is scaled to controls: 0 for no effect and ±100 for the full control effect; potency is read from the fitted curve at half-maximal effect.
Structure (SMILES),Potency,"activity change, negative = cytotoxicity"
CCCCCCCCO,inactive,
CC(C)n1c(/C=C/[C@@H](O)C[C@@H](O)CC(=O)O)c(-c2ccc(F)cc2)c2ccccc21,"inconclusive: 0.119 µM [cytotoxic, single point]",
Cc1c(C2(c3cc(Br)c(O)c(Br)c3C)OS(=O)(=O)c3ccccc32)cc(Br)c(O)c1Br,active: 52.9 µM,
CC(C)(O)c1ccc(CNC(=O)c2cccnc2Oc2ccc(F)cc2)cc1,"inconclusive: 2.43 µM [cytotoxic, single point]",
CCC=CC#N,,inactive: -0.878%
CCCCNc1ccc(C(=O)OCCOCCOCCOCCOCCOCCOCCOCCOCCOC)cc1,"inconclusive: 1.33 µM [cytotoxic, single point]",
CCCCC(CC)COC(=O)CCCCC(=O)OCC(CC)CCCC (centres undefined),inactive,
Cc1nc2n(c(=O)c1CCN1CCC(C(=O)c3ccc(F)cc3)CC1)CCS2,"inconclusive: 33.5 µM [cytotoxic, single point]",
CCCCCCCCCOS(=O)(=O)O,,inactive: 18.3%
CN(C)[C@@H]1C(=O)C(C(=O)NCN2CCCC2)=C(O)[C@@]2(O)C(=O)C3=C(O)c4c(O)cccc4[C@@](C)(O)C3C[C@@H]12 (some centres undefined),"inconclusive: 0.266 µM [cytotoxic, single point]",
C#C[C@]1(O)CC[C@H]2[C@@H]3CCC4=CC(=O)CC[C@@H]4[C@H]3CC[C@@]21CC,"inconclusive: 33.5 µM [cytotoxic, single point]",
CCCCC(CC)CNC(=O)CC(C)OC(=O)CCC(=O)O (centres undefined),"inconclusive: 2.98 µM [cytotoxic, single point]",
COc1ccc(CCO)cc1,,inactive: 12%
[K+],,inactive: 5.4%
O=C(OCC(COC(=O)c1ccccc1)(COC(=O)c1ccccc1)COC(=O)c1ccccc1)c1ccccc1,,inactive: -0.207%
Cc1nc(C)c(C)nc1C,,inactive: 15.9%
O=S(=O)(O)c1cccc2c(S(=O)(=O)O)cccc12,"inconclusive: 1.37 µM [cytotoxic, single point]",
CN(N=O)C(=O)N[C@@H]1[C@@H](O)[C@H](O)[C@@H](CO)O[C@@H]1O,"inconclusive: 27.1 µM [cytotoxic, single point]",
CCCCCCCCCCCCCCCC,,inactive: -4.99%
COC(=O)CCc1ccc(OCC(O)CNC(C)C)cc1 (centres undefined),"inconclusive: 7.5 µM [cytotoxic, single point]",

Structure (SMILES),Potency,"activity change, negative = cytotoxicity"
CCOc1cc([N+](=O)[O-])c(OCC)cc1N1CCOCC1,"inconclusive: 0.243 µM [cytotoxic, single point]",
C=CCOCC(O)CCl (centres undefined),"inconclusive: 27.3 µM [cytotoxic, single point]",
CCOC(=O)[C@H](CCc1ccccc1)N[C@H]1CCc2ccccc2N(CC(=O)O)C1=O,,inactive: 10.7% [at 42.5 µM]
CCOC(C)=O,active: 24.5 µM,
CCCN(CCC)c1c([N+](=O)[O-])cc(C(F)(F)F)c(N)c1[N+](=O)[O-],active: 60.9 µM,
C[C@H]1C[C@H]2[C@@H]3CCC4=CC(=O)C=C[C@]4(C)[C@@]3(F)[C@@H](O)C[C@]2(C)[C@@]1(O)C(=O)CO,"inconclusive: 77 µM [cytotoxic, single point] and inconclusive: 211 nM [cytotoxic, partial curve]",
O=C(OCCc1ccccc1)c1ccccc1,,inactive: -2%
CN(C)c1ccc(SC#N)cc1,"inconclusive: 0.0015 µM [rising, full curve, poor fit]",
CC1CCCCN1CCCOC(=O)c1ccc(OC2CCCCC2)cc1 (centres undefined),"inconclusive: 13.3 µM [cytotoxic, single point]",
C=CCCCC,"inconclusive: 0.456 µM [cytotoxic, single point]",
CC(=O)Nc1ccn(C2COC(COC(=O)c3ccccc3)O2)c(=O)n1 (centres undefined),"inconclusive: 7.5 µM [cytotoxic, single point]",
CCS(=O)(=O)c1ccc(OC)c(C(=O)OC)c1,"inconclusive: 7.5 µM [cytotoxic, single point]",
O=C(Nc1ccc(Cl)cc1)Nc1ccc(Cl)c(Cl)c1,"inconclusive: 13.6 µM [cytotoxic, full curve, poor fit] and inconclusive: 11.9 µM [cytotoxic, partial curve]",
Clc1cc(Cl)c2c(c1)N=C1CCCCCN1C2,"inconclusive: 4.73 µM [rising, partial curve]",
CCc1cccc(O)c1,"inconclusive: 0.446 µM [cytotoxic, full curve]",
CC(=O)Oc1cccc(O)c1,"inconclusive: 1.33 µM [cytotoxic, full curve, poor fit]",
NCc1ccco1,,inactive: -20.3%
O=C(O)CC(C(=O)O)C(CC(=O)O)C(=O)O (centres undefined),"inconclusive: 0.0039 µM [rising, full curve, poor fit]",
C[Si](C)(CCCN)O[Si](C)(C)CCCN,,inactive: 1.66%
